Reference: publication PMC9534957
Results are given in words; binding and its absence hold for the method and conditions named. Binding seen in cells or lysates may run through a third protein. Some binding calls cover weakened binding; strength is not graded here. For part of these data: Tags and fused reporters may be left off the sequences shown.

Amino acid sequences for entries named in this document (tags omitted). A change or cut given only in a name is not applied to a line headed by its entry. Chains listed by the source or under a name are the forms on record and can include a tag or linker. Residues count along the entry.
UniProt Q15437: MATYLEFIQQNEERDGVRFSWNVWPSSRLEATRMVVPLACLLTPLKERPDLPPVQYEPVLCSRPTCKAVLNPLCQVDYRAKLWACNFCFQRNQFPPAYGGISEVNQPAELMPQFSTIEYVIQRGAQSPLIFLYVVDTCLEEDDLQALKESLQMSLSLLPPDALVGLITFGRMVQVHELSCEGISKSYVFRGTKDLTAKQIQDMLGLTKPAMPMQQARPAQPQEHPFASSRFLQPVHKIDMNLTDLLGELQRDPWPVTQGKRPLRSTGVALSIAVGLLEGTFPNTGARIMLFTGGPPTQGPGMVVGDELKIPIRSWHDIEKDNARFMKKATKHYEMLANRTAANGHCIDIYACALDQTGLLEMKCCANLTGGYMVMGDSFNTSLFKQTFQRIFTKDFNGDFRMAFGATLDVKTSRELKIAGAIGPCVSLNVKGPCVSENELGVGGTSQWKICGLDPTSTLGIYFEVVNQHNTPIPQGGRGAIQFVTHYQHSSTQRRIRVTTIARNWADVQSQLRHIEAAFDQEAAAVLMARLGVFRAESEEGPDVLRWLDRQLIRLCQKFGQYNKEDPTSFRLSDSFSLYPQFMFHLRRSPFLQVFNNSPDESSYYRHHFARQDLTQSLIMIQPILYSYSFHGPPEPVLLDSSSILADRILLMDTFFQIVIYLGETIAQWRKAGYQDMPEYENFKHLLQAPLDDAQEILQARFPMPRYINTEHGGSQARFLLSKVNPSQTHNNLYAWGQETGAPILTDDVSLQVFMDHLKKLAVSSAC
V5-tagged full-length Fzd5 (wild type) (Q13467, residues 27-585): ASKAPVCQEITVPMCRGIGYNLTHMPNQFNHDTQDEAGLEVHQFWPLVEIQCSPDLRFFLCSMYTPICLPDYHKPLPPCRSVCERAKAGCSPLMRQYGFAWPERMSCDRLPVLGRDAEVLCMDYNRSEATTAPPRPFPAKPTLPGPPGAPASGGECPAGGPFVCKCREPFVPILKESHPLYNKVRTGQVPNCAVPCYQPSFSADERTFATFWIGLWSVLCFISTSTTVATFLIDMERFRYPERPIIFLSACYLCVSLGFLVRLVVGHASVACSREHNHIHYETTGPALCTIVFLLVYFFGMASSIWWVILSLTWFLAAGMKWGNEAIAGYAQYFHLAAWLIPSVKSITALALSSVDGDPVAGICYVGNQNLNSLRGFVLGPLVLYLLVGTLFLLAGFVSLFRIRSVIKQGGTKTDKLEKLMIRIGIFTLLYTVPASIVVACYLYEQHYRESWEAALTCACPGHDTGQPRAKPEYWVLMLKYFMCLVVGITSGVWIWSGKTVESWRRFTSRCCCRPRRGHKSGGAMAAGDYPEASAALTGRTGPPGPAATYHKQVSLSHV
V5-tagged Fzd5 C538A (Q13467, form named): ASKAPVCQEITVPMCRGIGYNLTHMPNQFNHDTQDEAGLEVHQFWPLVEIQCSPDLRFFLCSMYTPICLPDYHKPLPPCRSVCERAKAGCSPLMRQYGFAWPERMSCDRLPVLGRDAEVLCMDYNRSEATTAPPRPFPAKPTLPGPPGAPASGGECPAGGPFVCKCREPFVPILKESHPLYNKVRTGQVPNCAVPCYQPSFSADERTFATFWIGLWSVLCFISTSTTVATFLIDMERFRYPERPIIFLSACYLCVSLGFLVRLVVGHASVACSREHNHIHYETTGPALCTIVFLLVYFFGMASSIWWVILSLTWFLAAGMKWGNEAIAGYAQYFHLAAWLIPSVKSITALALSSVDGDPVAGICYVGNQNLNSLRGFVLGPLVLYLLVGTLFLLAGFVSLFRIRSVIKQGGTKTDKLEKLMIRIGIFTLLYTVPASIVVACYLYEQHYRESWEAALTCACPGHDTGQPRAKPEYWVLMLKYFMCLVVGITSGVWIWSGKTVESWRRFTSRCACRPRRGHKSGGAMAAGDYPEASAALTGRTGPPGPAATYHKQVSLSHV
V5-tagged Fzd5 I199A (Q13467, form named): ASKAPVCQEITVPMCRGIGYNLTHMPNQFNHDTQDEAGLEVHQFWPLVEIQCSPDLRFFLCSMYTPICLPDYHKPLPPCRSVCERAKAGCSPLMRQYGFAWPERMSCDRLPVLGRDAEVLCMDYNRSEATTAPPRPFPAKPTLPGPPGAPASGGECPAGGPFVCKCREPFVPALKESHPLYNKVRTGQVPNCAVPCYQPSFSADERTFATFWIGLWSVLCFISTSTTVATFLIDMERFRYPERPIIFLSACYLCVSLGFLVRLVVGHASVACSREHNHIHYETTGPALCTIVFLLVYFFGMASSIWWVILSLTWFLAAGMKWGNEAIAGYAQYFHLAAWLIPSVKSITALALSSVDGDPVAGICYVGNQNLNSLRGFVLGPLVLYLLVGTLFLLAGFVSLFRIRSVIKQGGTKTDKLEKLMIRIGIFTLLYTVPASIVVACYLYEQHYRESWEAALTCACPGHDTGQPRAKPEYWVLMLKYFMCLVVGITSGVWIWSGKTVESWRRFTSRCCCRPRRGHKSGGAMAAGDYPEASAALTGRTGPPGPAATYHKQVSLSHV

What was measured:
Test in all cases: co-IP; total cell lysate on α-HA-, α-Flag- or α-V5-agarose at 4 °C overnight, washed 5 times with TBS-T, SDS-PAGE and Western blot; cells also treated with added cholesterol or statin
Flag-Sec23B = Flag-Sec23B (UniProt Q15437)
HA-tagged Shisa3 = biological target: T1, HA-tagged Shisa3 (UniProt A0PJX4)
T1 sequence: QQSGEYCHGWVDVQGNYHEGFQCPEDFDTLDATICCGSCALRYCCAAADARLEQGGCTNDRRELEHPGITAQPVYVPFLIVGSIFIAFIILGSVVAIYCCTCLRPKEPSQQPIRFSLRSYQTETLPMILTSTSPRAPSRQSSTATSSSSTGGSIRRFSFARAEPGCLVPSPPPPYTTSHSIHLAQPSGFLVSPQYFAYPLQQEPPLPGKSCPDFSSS

HA-tagged TMEM79 = biological target: T2, HA-tagged TMEM79 (UniProt Q9BSE2)
T2 sequence: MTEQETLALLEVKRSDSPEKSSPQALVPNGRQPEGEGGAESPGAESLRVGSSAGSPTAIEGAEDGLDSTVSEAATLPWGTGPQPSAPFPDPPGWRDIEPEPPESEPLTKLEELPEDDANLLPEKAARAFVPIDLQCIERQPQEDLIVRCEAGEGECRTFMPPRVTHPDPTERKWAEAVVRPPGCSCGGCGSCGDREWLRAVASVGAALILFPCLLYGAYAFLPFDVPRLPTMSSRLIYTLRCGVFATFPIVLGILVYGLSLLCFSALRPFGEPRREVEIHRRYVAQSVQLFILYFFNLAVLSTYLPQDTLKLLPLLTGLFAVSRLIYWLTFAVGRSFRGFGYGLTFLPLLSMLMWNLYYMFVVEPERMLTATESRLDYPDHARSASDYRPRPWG

| binding (Flag-Sec23B) | binding (HA-tagged Shisa3) | binding (HA-tagged TMEM79) | Substance |
| --- | --- | --- | --- |
| binds | binds | binds | V5-tagged full-length Fzd5 (wild type) (from UniProt Q13467 27-585) (receptor) |
| binds weakly | binds | binds | V5-tagged Fzd5 C538A (from UniProt Q13467 27-585) (receptor) |
| binds weakly | binds | binds | V5-tagged Fzd5 I199A (from UniProt Q13467 27-585) (receptor) |
